# Data published in PubChem BioAssay AID662 (National Center for Advancing Translational Sciences (NCATS), 2007).
# The other results are listed elsewhere or left out. Shown are side measurements of this screen, not its main read-out; they come without a call. Most of these compounds were active or inconclusive in the main read-out, so they are no random draw. Words in brackets tell the shape of the fitted curve; partial curves, single points and poor fits give uncertain potencies.
# Test: Cell signaling CRE-BLA (Fsk stim)
# Details: CHO CRE-bla reporter (cAMP response element driving beta-lactamase), forskolin EC10, beta-lactamase ratio; measured here: 460 nm blue channel
# Procedure, shortened: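 Titrated compounds plus EC10 NKH 477 on CHO CRE-bla cells, 3 h, 37 °C. CCF4, 2 h RT. Ratio 460/530 nm → AC50.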
row,Compound,AC50
1,CNS(=O)(=O)c1cccc(C(=O)OCC(=O)Nc2ccccc2OC(F)F)c1,"0.00398 µM [falling, full curve, poor fit]"
2,C=CCNc1ncnc2c1cnn2-c1cccc(C)c1,"10 µM [rising, partial curve]"
3,COc1ccc(CCNC(=O)C2CCN(S(=O)(=O)N3CCCCCC3)CC2)cc1OC,"3.16 µM [falling, partial curve, poor fit]"
4,Cc1ccc2c(n1)sc1c(N)ncnc12,"12.6 µM [rising, partial curve]"
5,COc1ccc(CNc2cc(-c3cccc(NS(C)(=O)=O)c3)ncn2)c(OC)c1,"7.94 µM [rising, partial curve]"
6,Cc1c(CCC(=O)O)c(=O)oc2cc3occ(-c4ccc(F)cc4)c3cc12,"12.6 µM [rising, partial curve]"
7,N#Cc1cn(CC(=O)NCC2CCCO2)c2ccccc12 (stereo not drawn),"0.00316 µM [falling, full curve, poor fit]"
8,COc1cccc(C2C(C(=O)c3cc4ccccc4o3)=C(O)C(=O)N2c2cc(C)on2)c1OC (stereo not drawn),"25.1 µM [rising, single point]"
9,CSc1nc2nc(-c3ccccc3)cc(C(F)(F)F)n2n1,"25.1 µM [rising, single point]"
10,CCc1ccc(CCC(=O)O)nc1,"1 µM [rising, single point]"
11,COC(=O)C1C(=O)C2=C(CC1C)NC(C)=C(C(=O)OC(C)C)C2c1ccc(OC)c(O)c1 (stereo not drawn),"3.16 µM [rising, full curve, poor fit]"
12,CCOc1ccc(-c2[nH]ncc2-c2ccc(OC)c(OC)c2)c(O)c1,"0.794 µM [rising, full curve, poor fit]"
13,CC1(C)Cc2ccccc2-c2nc3ccccc3c(=O)n21,"12.6 µM [rising, single point]"
14,COc1ccccc1N1CCN(CC(=O)c2c(C)[nH]c3ccccc23)CC1,"15.8 µM [falling, partial curve, poor fit]"
15,CCOC(=O)Nc1ccc2c(c1)N(C(=O)CCN1CCN3CCCC3C1)c1ccccc1CC2 (stereo not drawn),"3.16 µM [falling, full curve, poor fit]"
16,Cc1cc(C)c2cc(C#N)c(N3CCCC3)nc2c1,"12.6 µM [rising, partial curve]"
17,COc1ccc(N2CC(C)Cn3c2nc2c3c(=O)n(Cc3ccc(F)cc3)c(=O)n2C)c(OC)c1 (stereo not drawn),"10 µM [rising, single point]"
18,COc1ccc(C2C3=C(CC(C)(C)CC3=O)Nc3c2c(=O)[nH]c(=O)n3Cc2ccccc2)cc1 (stereo not drawn),"3.16 µM [rising, partial curve]"
19,CC1Cc2ccccc2N1C(=O)CSc1nc2ccccc2n1CC(=O)N1CCOCC1 (stereo not drawn),"12.6 µM [rising, single point]"
20,CCOC(=O)c1cn(CC)c2cc(N3CCSCC3)c(F)cc2c1=O,"25.1 µM [rising, single point]"
21,O=C(c1ccco1)N1CCN(CC(O)COc2ccc3oc4ccccc4c3c2)CC1 (stereo not drawn),"0.1 µM [falling, single point]"
22,N#Cc1c(NC(=O)C(F)(F)F)sc2c3c(=O)c4ccccc4c(=O)c=3oc3ccccc3c12,"0.501 µM [rising, single point]"
23,COc1ccccc1N(C)S(=O)(=O)c1ccc(C(=O)NC2=NCCS2)cc1,"12.6 µM [rising, single point]"

# Some values from above:
# For AC50, N#Cc1c(NC(=O)C(F)(F)F)sc2c3c(=O)c4ccccc4c(=O)c=3oc3ccccc3c12 has 0.501 µM [rising, single point]
# For AC50, C=CCNc1ncnc2c1cnn2-c1cccc(C)c1 has 10 µM [rising, partial curve]
# For AC50, CCOC(=O)Nc1ccc2c(c1)N(C(=O)CCN1CCN3CCCC3C1)c1ccccc1CC2 (stereo not drawn) has 3.16 µM [falling, full curve, poor fit]
# For AC50, CCOc1ccc(-c2[nH]ncc2-c2ccc(OC)c(OC)c2)c(O)c1 has 0.794 µM [rising, full curve, poor fit]
# For AC50, N#Cc1cn(CC(=O)NCC2CCCO2)c2ccccc12 (stereo not drawn) has 0.00316 µM [falling, full curve, poor fit]

# Going on with the list.

row,Compound,AC50
1,NC(=O)c1c(NC(=O)c2cccs2)sc2c1CCCCCC2,"6.31 µM [rising, partial curve]"
2,O=C(OCC(=O)N1CCN(C(=O)c2ccco2)CC1)c1cc(-c2ccc(F)cc2)nc2ccccc12,"12.6 µM [rising, single point]"
3,CCN1CCc2nc(NC(=O)Cc3ccc4c(c3)OCCO4)sc2C1,"1 µM [falling, single point]"
4,CCOC(=O)N1CCC(=C2c3ccc(Cl)cc3CCc3cccnc32)CC1,"25.1 µM [falling, partial curve, poor fit]"
5,CCCCn1ccnc1C(=O)c1ccc(S(=O)(=O)N(CCOC)CCOC)cc1,"3.16 µM [rising, single point]"
6,Cc1cc(O)c(-c2cc(C(=O)Nc3ccc(S(=O)(=O)N4CCOCC4)cc3)[nH]n2)cc1C,"0.251 µM [rising, partial curve]"
7,COc1cccc(CNc2ccc(S(=O)(=O)Nc3nccs3)cc2)c1O,"25.1 µM [rising, single point]"
8,O=C(c1ccco1)N1CCN(Cc2ccccc2C(F)(F)F)CC1,"1 µM [rising, single point]"
9,O=C(Cc1cn2ccsc2n1)Nc1nc2c(s1)CCCC2,"7.94 µM [rising, partial curve, poor fit]"
10,N[C@H](CC(=O)O)C(=O)O,"31.6 µM [falling, single point]"
11,COc1cc(CCC(=O)Nc2cc(Cl)ccc2N2CCN(C)CC2)cc(OC)c1OC,"3.16 µM [falling, partial curve]"
12,COc1ccc(-c2nc3cnc(N4CCN(C)CC4)nc3n(C3CC3)c2=O)cc1,"10 µM [rising, partial curve]"
13,Cc1nc2ccccc2n1CCC(=O)Nc1cccc(F)c1,"5.01 µM [falling, partial curve]"
14,Cc1nc(/N=C\N(C)C)sc1C(=O)Nc1ccccc1,"1 µM [falling, partial curve]"
15,O=C(CN1CCN(c2ccc(F)cc2)CC1)Nc1cccc(C(F)(F)F)c1,"0.501 µM [falling, full curve]"
16,O=C(C1CCN(S(=O)(=O)N2CCOCC2)CC1)N1CCc2ccccc21,"1 µM [falling, partial curve]"
17,Cn1c(=O)n(C)c2cc(NC(=O)CSc3nnc(-c4ccccc4O)n3-c3ccccc3)ccc21,"10 µM [rising, single point]"
18,O=c1c(-c2ccccc2)nc2cnc(N3CCNCC3)nc2n1-c1ccccc1,"7.94 µM [rising, partial curve]"
19,Nn1c(SCC(=O)Nc2ccc3c(c2)OCO3)nnc1C1CC1,"12.6 µM [falling, single point]"
20,COc1cc2c(C#N)c(N3CCOCC3)nc(N)c2c(N)n1,"10 µM [rising, partial curve]"
21,CCCC(=O)c1cc(O)c(O)cc1O,"1 µM [falling, full curve, poor fit]"
22,COc1ccc(-c2coc3cc(O)ccc3c2=O)cc1,"7.94 µM [rising, partial curve, poor fit]"
23,Cc1cc(C)nc(SCCCn2c(=O)[nH]c3ccccc32)n1,"10 µM [rising, partial curve]"

row,Compound,AC50
1,COC(=O)c1[nH]c2cccc(OC)c2c1NC(=O)CN1CC2(C)CC1CC(C)(C)C2 (stereo not drawn),"1.58 µM [rising, partial curve]"
2,Nc1ncnc2c1ncn2CCOc1ccccc1,"10 µM [rising, partial curve]"
3,CCCc1nc(N)nc2c1C(=O)CC(C)(C)C2,"12.6 µM [rising, partial curve]"
4,CCNc1ncc2nc(CCc3ccccc3)c(=O)n(C3CC3)c2n1,"10 µM [rising, partial curve]"
5,Cc1ccc(NC(=O)c2c(-c3c(F)cccc3Cl)noc2C)cc1F,"1.26 µM [falling, full curve]"
6,Cc1cccc2cc3c(N)c(C(=O)N4CCOCC4)sc3nc12,"10 µM [rising, partial curve]"
7,COC(=O)c1ccc2c(c1)N(Cc1nc(-c3cccc(C)c3)oc1C)C(=O)C1CCCN21 (stereo not drawn),"2.51 µM [rising, full curve]"
8,CC(C)NC(=O)N1CC[C@@]2(CCCN(C(=O)c3ccco3)C2)C1,"12.6 µM [falling, single point]"
9,Cc1cccc(Cn2c(N(C)Cc3ccccc3)nc3c2c(=O)[nH]c(=O)n3C)c1,"7.94 µM [rising, partial curve]"
10,CCN(CC)C(=O)c1cc2sc3ccccc3c2s1,"20 µM [falling, single point]"
11,Cc1ccc(C)c(N2CCN(C(=O)CC3Sc4ccccc4NC3=O)CC2)c1 (stereo not drawn),"12.6 µM [rising, partial curve]"
12,Brc1ccccc1-c1nnc2sc(-c3ccc4c(c3)OCCO4)nn12,"25.1 µM [rising, single point]"
13,O=c1c2cnn(-c3ccc(F)cc3)c2ncn1Cc1cccnc1,"12.6 µM [rising, single point]"
14,CS(=O)(=O)Nc1cccc(-c2nc(Nc3ccc(F)cc3)c3ccccc3n2)c1,"20 µM [falling, single point]"
15,CCN1C(=O)CC(C(=O)Nc2ccc(F)cc2)SC1=Nc1cccc(OC)c1 (stereo not drawn),"0.0398 µM [falling, partial curve]"
16,Cc1cc(N2CCOCC2)nc2cc(O)ccc12,"12.6 µM [rising, single point]"
17,CC1(C)CC(=O)c2sc(NC(=O)CN3CCOCC3)nc2C1,"12.6 µM [rising, single point]"
18,CCOC(=O)c1oc2ccc(S(=O)(=O)N3CCC(C)CC3)cc2c1C,"12.6 µM [rising, single point]"
19,CC(C)(C)C1CCc2onc(C(=O)N3CCOCC3)c2C1 (stereo not drawn),"0.126 µM [rising, single point]"
20,O=C(OCCN1CCOCC1)C1(c2ccccc2)CCCCC1,"31.6 µM [falling, single point]"
21,COCCn1c(=O)c(C)nc2cnc(OCc3ccccc3)nc21,"12.6 µM [rising, partial curve]"
22,Cc1nn(-c2ccccc2)c2nc(N)c(C#N)c(-c3ccc(F)cc3)c12,"10 µM [rising, partial curve]"
